The list shows a part of the results. Only a few entries rise above the background.
Experiments:
Assay in all cases: fluorescence intensity of antibody binding to polysaccharide-coupled beads; higher = stronger binding
[1] = molecular target: pneumococcal polysaccharide Pn9V
[2] = molecular target: pneumococcal polysaccharide C-Poly-1
[3] = molecular target: pneumococcal polysaccharide C-Poly-2
[4] = molecular target: pneumococcal polysaccharide Pn1
[5] = molecular target: pneumococcal polysaccharide Pn10A
[6] = molecular target: pneumococcal polysaccharide Pn10B
[7] = molecular target: pneumococcal polysaccharide Pn10C
[8] = molecular target: pneumococcal polysaccharide Pn10F
[9] = molecular target: pneumococcal polysaccharide Pn11A
[10] = molecular target: pneumococcal polysaccharide Pn11B
[11] = molecular target: pneumococcal polysaccharide Pn11C
[12] = molecular target: pneumococcal polysaccharide Pn11D
[13] = molecular target: pneumococcal polysaccharide Pn11F
[14] = molecular target: pneumococcal polysaccharide Pn12A
[15] = molecular target: pneumococcal polysaccharide Pn12B
[16] = molecular target: pneumococcal polysaccharide Pn12F
[17] = molecular target: pneumococcal polysaccharide Pn13
[18] = molecular target: pneumococcal polysaccharide Pn14
[19] = molecular target: pneumococcal polysaccharide Pn15A
[20] = molecular target: pneumococcal polysaccharide Pn15B
[21] = antibody concentration 2.8593 ng/mL
[22] = antibody concentration 15.2894 ng/mL
[23] = antibody concentration 81.7561 ng/mL
[24] = antibody concentration 437.17 ng/mL
[25] = antibody concentration 2337.65 ng/mL
[26] = antibody concentration 0.1 ng/mL
[27] = antibody concentration 0.534724 ng/mL
[28] = antibody concentration 12500 ng/mL

B1: 3S41.1 (protein)
chain 1: EVQLVESGGGLVQPGGSLRLSCATSGFTFRNYWMYWFRQAPGKGLDWVSSISDSSSNTFYSDSVKGRFTISRDNAKNTLYLQMNSLRAEDTAVYYCARRPIAAATGVYWYFDLWGPGTPITVSS
chain 2: EIVMTQSPATLSLSPGERATLSCRASQNIGSNLAWYQQKPGRAPKLLIYDASSRATGIPDRFSASGSGTDFTLTISSLEPEDVGVYYCQQYNNWKIFGPGTKLEIK
fluorescence intensity [1, 21]: 15 MFI | fluorescence intensity [1, 22]: 15.5 MFI | fluorescence intensity [1, 23]: 15.5 MFI | fluorescence intensity [1, 24]: 15.5 MFI | fluorescence intensity [1, 25]: 18.5 MFI

B2: 4-99.1 (protein)
chain 1: QVQLQESGPGLVKPSETLSLTCAVSGDSISSGYFWGWIRQPPGKGLEYIGYISGESGNTYDNPSLKSRVTISKDTSKNQFSLNLRSVTAADTAVYYCARRTVYIGFDYWGQGVLVTVSS
chain 2: QAAPTQPPSVSGSPGQSVTISCTGTSSDIGYYNAVSWYQQHPGKAPKLMIYEVSKRPSGVSDRFSGSKSGTTASLTISGLQAEDEADYYCSSYAGTNTYIFGAGTRLTVL
fluorescence intensity [2, 26]: 27.5 MFI | fluorescence intensity [2, 27]: 26.5 MFI | fluorescence intensity [2, 21]: 26.2 MFI | fluorescence intensity [2, 22]: 27.5 MFI | fluorescence intensity [2, 23]: 26.5 MFI | fluorescence intensity [2, 24]: 29.5 MFI | fluorescence intensity [2, 25]: 60 MFI | fluorescence intensity [2, 28]: 553 MFI | fluorescence intensity [3, 26]: 23.5 MFI | fluorescence intensity [3, 27]: 21 MFI | fluorescence intensity [3, 21]: 22 MFI | fluorescence intensity [3, 22]: 21.5 MFI | fluorescence intensity [3, 23]: 23 MFI | fluorescence intensity [3, 24]: 24 MFI | fluorescence intensity [3, 25]: 55.5 MFI | fluorescence intensity [3, 28]: 462 MFI | fluorescence intensity [4, 26]: 12.8 MFI | fluorescence intensity [4, 27]: 15.8 MFI | fluorescence intensity [4, 21]: 13.5 MFI | fluorescence intensity [4, 22]: 14 MFI | fluorescence intensity [4, 23]: 14 MFI | fluorescence intensity [4, 24]: 17.5 MFI | fluorescence intensity [4, 25]: 19 MFI | fluorescence intensity [4, 28]: 70.5 MFI | fluorescence intensity [5, 26]: 25.5 MFI | fluorescence intensity [5, 27]: 27 MFI | fluorescence intensity [5, 21]: 27.2 MFI | fluorescence intensity [5, 22]: 26.5 MFI | fluorescence intensity [5, 23]: 26 MFI | fluorescence intensity [5, 24]: 26.5 MFI | fluorescence intensity [5, 25]: 30.5 MFI | fluorescence intensity [5, 28]: 72 MFI | fluorescence intensity [6, 26]: 24.5 MFI | fluorescence intensity [6, 27]: 24 MFI | fluorescence intensity [6, 21]: 25.5 MFI | fluorescence intensity [6, 22]: 22.5 MFI | fluorescence intensity [6, 23]: 22.5 MFI | fluorescence intensity [6, 24]: 24.5 MFI | fluorescence intensity [6, 25]: 26.5 MFI | fluorescence intensity [6, 28]: 38.5 MFI | fluorescence intensity [7, 26]: 17 MFI | fluorescence intensity [7, 27]: 16.5 MFI | fluorescence intensity [7, 21]: 16.5 MFI | fluorescence intensity [7, 22]: 17 MFI | fluorescence intensity [7, 23]: 18 MFI | fluorescence intensity [7, 24]: 17.2 MFI | fluorescence intensity [7, 25]: 19.5 MFI | fluorescence intensity [7, 28]: 30.5 MFI | fluorescence intensity [8, 26]: 21 MFI | fluorescence intensity [8, 27]: 20 MFI | fluorescence intensity [8, 21]: 20.5 MFI | fluorescence intensity [8, 22]: 20 MFI | fluorescence intensity [8, 23]: 20 MFI | fluorescence intensity [8, 24]: 20.5 MFI | fluorescence intensity [8, 25]: 22 MFI | fluorescence intensity [8, 28]: 25.5 MFI | fluorescence intensity [9, 26]: 27.5 MFI | fluorescence intensity [9, 27]: 26.5 MFI | fluorescence intensity [9, 21]: 30.2 MFI | fluorescence intensity [9, 22]: 29.8 MFI | fluorescence intensity [9, 23]: 30.8 MFI | fluorescence intensity [9, 24]: 32.2 MFI | fluorescence intensity [9, 25]: 39.2 MFI | fluorescence intensity [9, 28]: 49.5 MFI | fluorescence intensity [10, 26]: 27.2 MFI | fluorescence intensity [10, 27]: 28.5 MFI | fluorescence intensity [10, 21]: 26 MFI | fluorescence intensity [10, 22]: 27.5 MFI | fluorescence intensity [10, 23]: 27.5 MFI | fluorescence intensity [10, 24]: 27.8 MFI | fluorescence intensity [10, 25]: 32.5 MFI | fluorescence intensity [10, 28]: 39.5 MFI | fluorescence intensity [11, 26]: 22.5 MFI | fluorescence intensity [11, 27]: 22 MFI | fluorescence intensity [11, 21]: 22.8 MFI | fluorescence intensity [11, 22]: 20.5 MFI | fluorescence intensity [11, 23]: 22.5 MFI | fluorescence intensity [11, 24]: 25 MFI | fluorescence intensity [11, 25]: 46.5 MFI | fluorescence intensity [11, 28]: 282 MFI | fluorescence intensity [12, 26]: 24 MFI | fluorescence intensity [12, 27]: 22.5 MFI | fluorescence intensity [12, 21]: 22.5 MFI | fluorescence intensity [12, 22]: 23.5 MFI | fluorescence intensity [12, 23]: 23 MFI | fluorescence intensity [12, 24]: 24.5 MFI | fluorescence intensity [12, 25]: 34.5 MFI | fluorescence intensity [12, 28]: 128 MFI | fluorescence intensity [13, 26]: 15 MFI | fluorescence intensity [13, 27]: 16 MFI | fluorescence intensity [13, 21]: 13.5 MFI | fluorescence intensity [13, 22]: 12.5 MFI | fluorescence intensity [13, 23]: 14.8 MFI | fluorescence intensity [13, 24]: 14 MFI | fluorescence intensity [13, 25]: 15.5 MFI | fluorescence intensity [13, 28]: 28.5 MFI | fluorescence intensity [14, 26]: 14.5 MFI | fluorescence intensity [14, 27]: 16.5 MFI | fluorescence intensity [14, 21]: 15.5 MFI | fluorescence intensity [14, 22]: 15.5 MFI | fluorescence intensity [14, 23]: 15 MFI | fluorescence intensity [14, 24]: 15.5 MFI | fluorescence intensity [14, 25]: 21 MFI | fluorescence intensity [14, 28]: 43.5 MFI | fluorescence intensity [15, 26]: 15.5 MFI | fluorescence intensity [15, 27]: 16 MFI | fluorescence intensity [15, 21]: 15.5 MFI | fluorescence intensity [15, 22]: 15.5 MFI | fluorescence intensity [15, 23]: 16 MFI | fluorescence intensity [15, 24]: 16 MFI | fluorescence intensity [15, 25]: 20.5 MFI | fluorescence intensity [15, 28]: 46 MFI | fluorescence intensity [16, 26]: 19 MFI | fluorescence intensity [16, 27]: 18.8 MFI | fluorescence intensity [16, 21]: 18.8 MFI | fluorescence intensity [16, 22]: 19.5 MFI | fluorescence intensity [16, 23]: 18.5 MFI | fluorescence intensity [16, 24]: 19 MFI | fluorescence intensity [16, 25]: 25.5 MFI | fluorescence intensity [16, 28]: 91 MFI | fluorescence intensity [17, 26]: 20 MFI | fluorescence intensity [17, 27]: 18.5 MFI | fluorescence intensity [17, 21]: 19.5 MFI | fluorescence intensity [17, 22]: 19.5 MFI | fluorescence intensity [17, 23]: 20 MFI | fluorescence intensity [17, 24]: 19 MFI | fluorescence intensity [17, 25]: 21 MFI | fluorescence intensity [17, 28]: 47.8 MFI | fluorescence intensity [18, 26]: 14.5 MFI | fluorescence intensity [18, 27]: 16 MFI | fluorescence intensity [18, 21]: 15.5 MFI | fluorescence intensity [18, 22]: 15.5 MFI | fluorescence intensity [18, 23]: 16 MFI | fluorescence intensity [18, 24]: 18.5 MFI | fluorescence intensity [18, 25]: 41.5 MFI | fluorescence intensity [18, 28]: 404 MFI | fluorescence intensity [19, 26]: 13.5 MFI | fluorescence intensity [19, 27]: 14 MFI | fluorescence intensity [19, 21]: 14 MFI | fluorescence intensity [19, 22]: 13 MFI | fluorescence intensity [19, 23]: 13 MFI | fluorescence intensity [19, 24]: 14.5 MFI | fluorescence intensity [19, 25]: 13.5 MFI | fluorescence intensity [19, 28]: 19.2 MFI | fluorescence intensity [20, 26]: 17.5 MFI | fluorescence intensity [20, 27]: 20 MFI | fluorescence intensity [20, 21]: 18.5 MFI | fluorescence intensity [20, 22]: 18.5 MFI | fluorescence intensity [20, 23]: 18 MFI | fluorescence intensity [20, 24]: 23.5 MFI
